Reference: patent US20020183300A1, “Zinc ionophores as anti-stress agents” (priority 2001, published 2002)
At least one compound was matched to its structure with a doubt left.

Tested on: cultured HUVEC, isolated cardiac myocytes, cultured cerebellar neurons
Experiment: Zinc ionophore screening with Fura-2 loaded cells (fluorescence ratio 340/380 nm)
Type: cell-based, human; rabbit; mouse
Experimental: Human umbilical vein endothelial cells (HUVEC) were purchased from Clonetics (San Diego, Calif.) and passages DeKeyser F. G. et al. (2000) Neuroimmunomodulation 7:182-188; Revilla V. et al. Brain Res. Bull 49:413-418; Troullos E. et al. (1997) Clin. Pharmacol. Ther. 62:74-81 were used for these studies. Cells were cultured on flame-sterilzed glass coverslips in Endothelial Basal Medium (Clonetics) supplemented with 10 ng/ml human recombinant epidermal growth factor, 1.0 ug/ml hydrocortisone, 50 ug/ml gentamicin, 50ng/ml amphotetericin B, 12 ug/ml bovine brain extract and 2% v/v fetal bovine serum (all from Clonetics), in a humidified chamber at 37° C. and 5% CO2. To maintain cell populations, proliferating HUVEC were passaged at 80-90% confluency.
Cardiac myocytes were isolated from the ventricular septum of adult rabbit hearts, following collagenase digestion, in a manner similar to that described previously (Turan, B. et al., (1997) Am. J. Physiol. 272:H2095-H2106). The modification consisted of introducing low concentrations of CaCl2 during the perfusion with collagenase and the dispersion of the myocytes. Hearts were perfused for about 2 min by gravity under a hydrostatic pressure of 1 m, with a nominally Ca^2+-free solution containing (in mM): NaCl, 145; KCl, 5; MgSO4, 1.2; Na2HPO4, 1.8; HEPES, 5; glucose, 10; pH adjusted to 7.4 with NaOH. […]

Compound | zinc-ionophore properties
CCN(CC)C(=S)SSC(=S)N(CC)CC [Disulfiram] | possess zinc-ionophore properties
S=C(S)N1CCCC1 [Pyrrolidinedithiocarbamate] | possess zinc-ionophore properties
